# Results are given in words; binding and its absence hold for the method and conditions named. In cells and extracts the contact can be indirect.
# Amino acid sequences for entries named in this document (tags omitted). A change or cut given only in a name is not applied to a line headed by its entry.
# UniProt Q07955: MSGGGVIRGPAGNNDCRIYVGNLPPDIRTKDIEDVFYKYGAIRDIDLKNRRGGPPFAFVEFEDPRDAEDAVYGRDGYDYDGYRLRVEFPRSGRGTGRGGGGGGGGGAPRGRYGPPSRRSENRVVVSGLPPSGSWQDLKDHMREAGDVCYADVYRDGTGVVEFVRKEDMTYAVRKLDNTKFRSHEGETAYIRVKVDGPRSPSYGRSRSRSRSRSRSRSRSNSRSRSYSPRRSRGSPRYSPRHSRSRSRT
# UniProt Q9NRR4: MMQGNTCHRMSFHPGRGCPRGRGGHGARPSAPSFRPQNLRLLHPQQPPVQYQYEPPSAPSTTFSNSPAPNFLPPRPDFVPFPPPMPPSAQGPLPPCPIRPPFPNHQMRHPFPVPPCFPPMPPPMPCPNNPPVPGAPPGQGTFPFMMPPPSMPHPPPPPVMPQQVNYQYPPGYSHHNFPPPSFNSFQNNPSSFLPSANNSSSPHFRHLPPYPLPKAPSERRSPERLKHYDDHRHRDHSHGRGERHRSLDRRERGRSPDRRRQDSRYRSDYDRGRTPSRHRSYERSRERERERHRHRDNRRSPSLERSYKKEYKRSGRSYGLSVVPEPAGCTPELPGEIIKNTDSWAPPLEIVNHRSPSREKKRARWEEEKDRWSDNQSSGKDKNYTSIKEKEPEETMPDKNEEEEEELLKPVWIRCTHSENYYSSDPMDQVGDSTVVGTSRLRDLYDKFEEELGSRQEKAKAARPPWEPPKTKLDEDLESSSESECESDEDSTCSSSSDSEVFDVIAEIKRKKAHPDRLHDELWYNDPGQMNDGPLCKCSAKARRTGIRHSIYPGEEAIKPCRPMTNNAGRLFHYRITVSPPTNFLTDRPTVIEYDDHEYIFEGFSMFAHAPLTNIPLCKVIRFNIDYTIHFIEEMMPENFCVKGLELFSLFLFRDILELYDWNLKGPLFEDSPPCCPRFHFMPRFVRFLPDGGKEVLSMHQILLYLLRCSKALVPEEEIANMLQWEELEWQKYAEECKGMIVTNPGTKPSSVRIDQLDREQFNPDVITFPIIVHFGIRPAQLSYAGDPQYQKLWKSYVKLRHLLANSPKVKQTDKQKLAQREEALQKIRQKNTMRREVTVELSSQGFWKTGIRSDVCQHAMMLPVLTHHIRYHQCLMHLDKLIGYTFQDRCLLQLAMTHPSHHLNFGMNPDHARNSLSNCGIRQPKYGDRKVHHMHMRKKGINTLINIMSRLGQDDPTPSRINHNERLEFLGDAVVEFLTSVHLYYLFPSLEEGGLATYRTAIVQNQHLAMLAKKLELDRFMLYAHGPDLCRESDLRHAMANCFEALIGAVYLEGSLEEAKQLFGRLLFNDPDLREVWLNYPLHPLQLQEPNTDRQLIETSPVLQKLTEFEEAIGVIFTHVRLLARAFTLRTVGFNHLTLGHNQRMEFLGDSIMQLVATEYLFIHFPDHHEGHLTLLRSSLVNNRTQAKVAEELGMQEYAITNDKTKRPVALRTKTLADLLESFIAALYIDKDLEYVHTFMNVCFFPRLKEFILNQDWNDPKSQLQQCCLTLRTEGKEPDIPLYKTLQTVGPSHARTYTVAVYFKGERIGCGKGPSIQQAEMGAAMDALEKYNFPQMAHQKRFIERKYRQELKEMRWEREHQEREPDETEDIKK
# Target: T7-SRSF1 (UniProt Q07955)
# Assay: co-IP
substance,measurement,value
Microprocessor complex consisting of Drosha and DGCR8 (from UniProt Q9NRR4 1-1374; Q8WYQ5 1-773),binding,no binding
